Results: patent publication US20170121383A1
These are yes or no findings as the source states them, for the method shown. In cells and extracts the contact can be indirect. These calls come from enrichment with a bait or labelling near it, and not all partners need be listed.

Target: T1, mature bone morphogenetic protein 10 (BMP10), human (human) (UniProt O95393)
T1 sequence: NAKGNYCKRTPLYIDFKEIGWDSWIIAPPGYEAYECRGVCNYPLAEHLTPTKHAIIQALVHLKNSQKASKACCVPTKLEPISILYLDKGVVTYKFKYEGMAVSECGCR
Test: co-purification of the prodomain with mature BMP10 from HEK-EBNA conditioned medium (Q-Sepharose, then S200 gel filtration; non-reducing SDS-PAGE, western blot, mass spectrometry)

binding: binds
B1: BMP10 prodomain (propeptide of human bone morphogenetic protein 10) (protein)
chain: SPIMNLEQSPLEEDMSLFGDVFSEQDGVDFNTLLQSMKDEFLKTLNLSDIPTQDSAKVDPPEYMLELYNKFATDRTSMPSANIIRSFKNEDLFSQPVSFNGLRKYPLLFNVSIPHHEEVIMAELRLYTLVQRDRMIYDGVDRKITIFEVLESKGDNEGERNMLVLVSGEIYGTNSEWETFDVTDAIRRWQKSGSSTHQLEVHIESKHDEAEDASSGRLEIDTSAQNKHNPLLIVFSDDQSSDKERKEELNEMISHEQLPELDNLGLDSFSSGPGEEALLQMRSNIIYDSTARIRR
